This is one part of the list.
Tested on: T1, CTL2-GFP (C. trachomatis L2/434/Bu, GFP-expressing)
T1 construct: L2/434/Bu, GFP-expressing
Design: species or system HeLa; Intracellular C. trachomatis growth in HeLa cells, bulk GFP fluorescence relative to DMSO
Conditions: bulk GFP, single well; 28.5 h, 10 µM; inhibitor

Compound | % of control remaining [%]
O=C(NCCc1ccccn1)c1ccc(Cl)cc1Cl [CBK015946] | 118.507
COc1ccc(CCNC(=O)/C=C/C(=O)O)cc1OC [CBK265373] | 100
Cc1cc(CNS(=O)(=O)c2cccc3nonc23)no1 [CBK062263] | 91.3354
O=C(O)c1cccc(N2N=C(c3ccccc3)CC2=O)c1 [CBK286966] | 139.17
CN1CCC(N(C)Cc2coc3ccccc3c2=O)CC1 [CBK261578] | 83.8975
O=C(c1ccccc1F)N1CCC(c2nnc3n2CCCCC3)CC1 [CBK284628] | 141.423
O=[N+]([O-])c1ccc(N2CCN(S(=O)(=O)c3ccc(Cl)cc3)CC2)cc1NCc1cccnc1 [CBK264749] | 87.6397
O=C(CC1CC1)N1CCCC2(CCN(C(=O)c3cc(F)c(F)cc3F)C2)C1 (centres unmarked) [CBK131531] | 100
Cc1ccc2c(c1)C(NC(=O)C1CC1)CC1(CCOCC1)O2 (centres unmarked) [CBK284879] | 125.043
CC1=NS(=O)(=O)NC2=C1CCCC2 [CBK022998] | 134.635
O=C(c1ccc2nccnc2c1)N1CCN(c2ccccc2)CC1 [CBK200209] | 96.5525
CN(Cc1ccncn1)C(=O)c1cn(CC2CCCO2)nn1 (centres unmarked) [CBK307081] | 125.293
CCC(C)(C)c1ccc(S(=O)(=O)N2CCCN(Cc3ccnc4ccccc34)CC2)cc1 [CBK062865] | 127.908
c1ccc(CCNc2cncc(-c3cc4ccccc4o3)n2)nc1 [CBK066036] | 148.95
Cc1cc(Br)ccc1C(=O)Nc1ccc2ncccc2c1 [CBK159814] | 95.6964
O=C(OCC(=O)c1cccc2ccccc12)c1cc2ccccc2cc1O [CBK265526] | 105.552
C=CCn1c(S)nnc1-c1ccc(Br)cc1 [CBK096756] | 104.796
CCOC(=O)c1cnn(C2CCCN(Cc3cccc(O)c3)C2)c1 (centres unmarked) [CBK304046] | 134.236
Cc1nc(NS(=O)(=O)c2cc(Br)c(Cl)s2)sc1C(=O)O [CBK045560] | 135.168
CC1CC(=O)C2C=C(c3ccc(Br)cc3)NN=C2C1 (centres unmarked) [CBK021352] | 116.221
Cc1nonc1CNC(=O)N1CCOCC(C2CCC2)C1 (centres unmarked) [CBK304086] | 118.852
Cc1ccc(C(=O)O)cc1S(=O)(=O)N(C)CCO [CBK267167] | 117.82
CC(C)(C)Nc1cc(NCCc2ccccc2)nc(N)n1 [CBK012708] | 130.534
O=C1NCCN1C1CCN(c2ncnc3ccccc23)CC1 [CBK304896] | 79.0941
Cn1c(Sc2ccc(C#N)cn2)nnc1-c1ccco1 [CBK297756] | 111.226
Nn1c(SCC(=O)Nc2cccc3ccccc23)nnc1-c1ccccc1Cl [CBK266080] | 159.337
Cc1ccc(C(=O)N2Cc3ccccc3C2)cn1 [CBK200318] | 151.298

Compound | % of control remaining [%]
CCc1ccc2c(c1)C(CCNC(=O)c1c(C)noc1C(F)F)C(=O)N2 (centres unmarked) [CBK304090] | 107.716
CCCCOc1ccccc1NC(=O)CC1NCCNC1=O (centres unmarked) [CBK269299] | 152.042
CN(C)/C=N/c1ncnc2c1nc(Br)n2C1CC(O)C(CO)O1 (centres unmarked) [CBK201277] | 201.722
O=C(CCN1C(=O)/C(=C/c2ccc(F)cc2)SC1=S)NNC(=O)c1cccnc1 [CBK262862] | 104.448
COc1ccc(C(=O)N2CCC3(CCCN(C(=O)c4ccc5[nH]c(=O)[nH]c5c4)C3)C2)cc1OC (centres unmarked) [CBK137086] | 108.75
CCc1nnc(NS(=O)(=O)c2ccc(N/C=C3\C(=O)N(c4ccc(Cl)cc4)N=C3C)cc2)s1 [CBK262416] | 18.735
CC(C)(C)C1CCc2c(sc(NC(=S)NC(=O)c3cc4ccccc4o3)c2C(N)=O)C1 (centres unmarked) [CBK268635] | 166.505
c1ccc(N2CCN(c3cc(-c4cc5ccccc5s4)ncn3)CC2)nc1 [CBK091084] | 124.623
O=C1CC(c2ccc(F)cc2)CC(=O)C1=CNCCN1CCN(C(=S)Nc2ccccc2)CC1 (centres unmarked) [CBK264784] | 135.373
Nc1ncnc2c1C(c1ccc(Cl)cc1)c1c(ccc3ccccc13)O2 (centres unmarked) [CBK263938] | 88.2888
O=C(CSc1nnc(-c2ccncc2)n1-c1ccccc1)N/N=C/c1c[nH]c2ccccc12 [CBK262776] | 123.994
CCc1nn(CC(=O)N2CCCC(C)C2)c(=O)c2cc3occc3n12 (centres unmarked) [CBK283657] | 111.715
Cc1cc(CNC(=O)Nc2ccc(F)c(-n3nnnc3C)c2)n(C)n1 [CBK305525] | 170.434
CCCNC(=O)C(C)NC(=O)C1=Cc2ccccc2OC1 (centres unmarked) [CBK297937] | 113.322
CC(c1ncc(Br)cn1)N1CCN(Cc2noc(C(C)(C)C)n2)CC1 (centres unmarked) [CBK306168] | 128.447
CN1CCC(=NNC(=O)CN(c2cccc([N+](=O)[O-])c2)S(=O)(=O)c2ccccc2)CC1 [CBK262727] | 112.361
CC(C)c1ccc(/C=C/C(=O)NCc2ccc3occc3c2)cc1 [CBK149620] | 100
CCc1cc(C(=O)N2CCC(Oc3ccccc3F)CC2)n(C)n1 [CBK282172] | 78.8493
CN1CCN(C(=O)c2ccsc2NS(=O)(=O)c2ccc(Oc3ccccc3)cc2)CC1 [CBK042277] | 100
O=C(NCCO)C1(Cc2ccc(-c3ccccc3)cc2)CCNC1 (centres unmarked) [CBK283043] | 109.227
COc1ccc(CNC2CCCc3ccccc32)c(OC)c1C (centres unmarked) [CBK025778G] | 138.443
O=C(CCn1cnc2ccccc2c1=O)Nc1ccc(S(=O)(=O)N2CCOCC2)cc1 [CBK267645] | 120.077
Cc1ccccc1C(=O)Nc1ccc(F)c(F)c1 [CBK058249] | 113.751
CSc1nccc(N2CCC(NCCCn3ccnn3)CC2)n1 [CBK307076] | 120.375
CC(C)n1c(NCc2ccccc2)nc2c1c(=O)n(C)c(=O)n2C [CBK140094] | 90.7654
Cc1ccc2c(c1)cc(C(=O)N1CCOC(C(=O)N3CCc4ccccc4C3)C1)n2C (centres unmarked) [CBK286035] | 117.844
O=C(O)COCC(=O)N1CCN(c2ccccc2Cl)CC1 [CBK268155] | 102.021

Individual results from the results shown:
% of control remaining [%], Nn1c(SCC(=O)Nc2cccc3ccccc23)nnc1-c1ccccc1Cl [CBK266080] is entered as 159.337
% of control remaining [%], Cc1nc(NS(=O)(=O)c2cc(Br)c(Cl)s2)sc1C(=O)O [CBK045560] is entered as 135.168
% of control remaining [%], O=C(c1ccc2nccnc2c1)N1CCN(c2ccccc2)CC1 [CBK200209] is entered as 96.5525
% of control remaining [%], O=C1CC(c2ccc(F)cc2)CC(=O)C1=CNCCN1CCN(C(=S)Nc2ccccc2)CC1 (centres unmarked) [CBK264784] is entered as 135.373
% of control remaining [%], CC(C)(C)C1CCc2c(sc(NC(=S)NC(=O)c3cc4ccccc4o3)c2C(N)=O)C1 (centres unmarked) [CBK268635] is entered as 166.505
% of control remaining [%], O=C(OCC(=O)c1cccc2ccccc12)c1cc2ccccc2cc1O [CBK265526] is entered as 105.552

(listing goes on)

Compound | % of control remaining [%]
Cc1nn(-c2ccccc2)c(O)c1Cc1c(Cl)cccc1Cl [CBK067760] | 68.7441
C=C[C@H]1C[N@@]2CC[C@H]1C[C@@H]2CNS(=O)(=O)c1cccc2cccnc12 [CBK288751] | 145.431
CN1CCC(=NNC(=O)CN(c2cccc(Cl)c2)S(=O)(=O)c2ccccc2)CC1 [CBK262489] | 133.041
O=C(CSc1ccc2nnc(-c3ccc(F)cc3)n2n1)N1CCOCC1 [CBK287521] | 144.318
COc1ccc(C(NC(=O)c2cn3ccsc3n2)[C@H]2C[C@H](O)C2)cn1 (some centres unmarked) [CBK306744] | 84.5185
CCC(SC1=NCCS1)C(=O)Nc1ccc(NC(C)=O)cc1 (centres unmarked) [CBK266199] | 149.855
Cc1cccc(NC(=O)CSc2ncnc3sc4c(c23)CCC(C)C4)c1 (centres unmarked) [CBK265738] | 118.895
CCN(C(=O)Cc1cc(OC)ccc1Br)c1cccnc1 [CBK305318] | 161.066
Cc1nnc(SCc2cc(=O)[nH]c(Nc3nc(C)c4cccc(C)c4n3)n2)s1 [CBK266740] | 119.045
O=C(c1cc(F)c(F)cc1F)N1CCC2(CCCN(Cc3ccc(Cl)c(Cl)c3)C2)C1 (centres unmarked) [CBK131990] | 116.718
CCC1CCCCN1C(=O)c1ccccc1OC (centres unmarked) [CBK083205] | 112.315
O=C(c1nc2ccccc2[nH]1)N1CCC(F)CC1 [CBK200278] | 119.851
S=C(NCC1CCN(C(=S)NC2CCCCC2)CC1)NC1CCCCC1 [CBK004987] | 156.179
CCCCN(C)CCNC(=O)c1ccc2c(c1)NC(=O)C(N1CCCCC1)S2 (centres unmarked) [CBK071799] | 117.248
Cc1ccc(NC(=O)C(=O)NCCCn2ccnc2)cc1Cl [CBK264238] | 127.078
O=C(Nc1ccc2oc(-c3cccnc3)nc2c1)c1ccc(-c2ccccc2)cc1 [CBK264035] | 131.12
FC(F)(F)Oc1ccc(CNc2nccnc2-c2cccs2)cc1 [CBK036806] | 156.067
CCn1cc(C(=O)NN)c(=O)c2cc(F)c(N3CCCC3)cc21 [CBK307146] | 135.755
O=C(CCn1c(-c2ccccn2)cc2cccnc21)NC1CCCC1 [CBK284965] | 111.383
OC(CN(c1ccccc1)c1ccccc1)Cn1cnc2ccccc21 (centres unmarked) [CBK261417] | 108.292
Cc1nc2ccc(C(=O)N3CCN(c4ccccc4)CC3)cn2c1N(C)C(=O)c1cccs1 [CBK146544] | 104.437
CCC(C)(C)c1ccc(S(=O)(=O)Nc2cc(Cl)ccc2O)cc1 [CBK045243] | 68.9477
c1ccc(CCN2CCC(Cc3ccccc3)CC2)cc1 [CBK126434] | 116.109
COCCn1c(SCc2cn3c(C)cc(C)nc3n2)nc(C)c1C [CBK306489] | 117.408
Cn1c(SCc2nnc(-c3ccccc3)o2)nnc1C(O)c1ccccc1 (centres unmarked) [CBK269640] | 144.124
O=C(CCn1c2ccccc2c2ccccc21)N1CCn2cnnc2C1 [CBK283645] | 108.862

From paper PMC12040169 (PLOS Biology, 2025)
